Data reported in paper PMC12448893.
These are yes or no findings as the source states them, for the method shown. In cells and extracts the contact can be indirect. A yes stands for co-enrichment or nearness to the bait. Other partners may have been found.

By UniProt entry, the sequences of proteins in these tests, tags left out. Where a name states a change or a piece, a line headed by the entry shows the natural chain unless it says otherwise.
UniProt Q13547: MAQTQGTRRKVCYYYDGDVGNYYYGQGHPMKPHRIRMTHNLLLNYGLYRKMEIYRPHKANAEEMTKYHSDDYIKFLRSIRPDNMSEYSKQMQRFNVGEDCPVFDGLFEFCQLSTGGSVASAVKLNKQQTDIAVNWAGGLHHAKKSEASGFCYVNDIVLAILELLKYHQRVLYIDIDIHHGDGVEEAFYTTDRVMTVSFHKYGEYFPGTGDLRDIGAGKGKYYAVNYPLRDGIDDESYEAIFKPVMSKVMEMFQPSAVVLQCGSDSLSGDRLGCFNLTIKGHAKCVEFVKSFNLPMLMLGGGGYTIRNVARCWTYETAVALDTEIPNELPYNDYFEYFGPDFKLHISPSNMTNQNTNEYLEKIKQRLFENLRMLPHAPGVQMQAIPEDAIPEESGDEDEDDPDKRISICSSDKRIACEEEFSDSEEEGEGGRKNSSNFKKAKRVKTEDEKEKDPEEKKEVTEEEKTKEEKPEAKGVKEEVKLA
UniProt Q80TZ9: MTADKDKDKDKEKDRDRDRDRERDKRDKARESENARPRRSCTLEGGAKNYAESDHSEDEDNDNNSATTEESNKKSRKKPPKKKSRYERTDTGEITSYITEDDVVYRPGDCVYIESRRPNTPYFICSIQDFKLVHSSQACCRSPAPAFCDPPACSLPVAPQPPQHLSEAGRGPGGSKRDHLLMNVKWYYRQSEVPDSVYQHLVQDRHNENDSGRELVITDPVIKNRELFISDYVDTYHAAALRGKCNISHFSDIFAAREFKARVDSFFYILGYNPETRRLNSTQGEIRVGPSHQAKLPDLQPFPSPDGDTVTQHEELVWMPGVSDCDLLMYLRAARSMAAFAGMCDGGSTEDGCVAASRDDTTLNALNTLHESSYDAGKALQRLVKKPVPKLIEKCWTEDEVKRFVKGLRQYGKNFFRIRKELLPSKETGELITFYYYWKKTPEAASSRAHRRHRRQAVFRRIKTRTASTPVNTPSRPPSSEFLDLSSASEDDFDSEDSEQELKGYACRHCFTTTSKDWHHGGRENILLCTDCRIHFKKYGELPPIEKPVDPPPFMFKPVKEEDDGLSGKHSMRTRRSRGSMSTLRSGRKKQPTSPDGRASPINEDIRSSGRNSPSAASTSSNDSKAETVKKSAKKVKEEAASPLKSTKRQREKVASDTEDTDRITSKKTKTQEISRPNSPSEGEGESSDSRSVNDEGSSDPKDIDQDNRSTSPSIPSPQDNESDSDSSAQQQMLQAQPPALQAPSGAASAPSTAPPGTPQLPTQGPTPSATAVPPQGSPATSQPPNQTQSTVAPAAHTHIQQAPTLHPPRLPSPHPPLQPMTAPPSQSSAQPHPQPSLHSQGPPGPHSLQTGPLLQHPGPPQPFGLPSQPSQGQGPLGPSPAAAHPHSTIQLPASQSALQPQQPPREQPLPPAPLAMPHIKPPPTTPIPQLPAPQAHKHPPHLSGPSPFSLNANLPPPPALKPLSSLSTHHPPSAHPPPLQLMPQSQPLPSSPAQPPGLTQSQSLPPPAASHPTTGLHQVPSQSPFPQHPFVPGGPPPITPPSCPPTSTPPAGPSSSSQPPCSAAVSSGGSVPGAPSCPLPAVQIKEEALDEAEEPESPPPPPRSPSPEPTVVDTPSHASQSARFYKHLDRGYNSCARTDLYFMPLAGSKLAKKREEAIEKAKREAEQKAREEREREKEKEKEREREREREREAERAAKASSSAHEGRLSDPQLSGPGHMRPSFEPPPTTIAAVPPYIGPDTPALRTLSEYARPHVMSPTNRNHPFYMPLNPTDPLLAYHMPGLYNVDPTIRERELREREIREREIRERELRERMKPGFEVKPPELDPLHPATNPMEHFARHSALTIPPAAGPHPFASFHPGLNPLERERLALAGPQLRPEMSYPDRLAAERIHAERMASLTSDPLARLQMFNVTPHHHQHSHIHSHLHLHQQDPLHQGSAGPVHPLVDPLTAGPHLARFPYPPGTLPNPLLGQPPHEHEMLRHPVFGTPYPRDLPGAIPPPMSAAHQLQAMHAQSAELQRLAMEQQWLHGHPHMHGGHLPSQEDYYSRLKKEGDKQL
UniProt Q8C796: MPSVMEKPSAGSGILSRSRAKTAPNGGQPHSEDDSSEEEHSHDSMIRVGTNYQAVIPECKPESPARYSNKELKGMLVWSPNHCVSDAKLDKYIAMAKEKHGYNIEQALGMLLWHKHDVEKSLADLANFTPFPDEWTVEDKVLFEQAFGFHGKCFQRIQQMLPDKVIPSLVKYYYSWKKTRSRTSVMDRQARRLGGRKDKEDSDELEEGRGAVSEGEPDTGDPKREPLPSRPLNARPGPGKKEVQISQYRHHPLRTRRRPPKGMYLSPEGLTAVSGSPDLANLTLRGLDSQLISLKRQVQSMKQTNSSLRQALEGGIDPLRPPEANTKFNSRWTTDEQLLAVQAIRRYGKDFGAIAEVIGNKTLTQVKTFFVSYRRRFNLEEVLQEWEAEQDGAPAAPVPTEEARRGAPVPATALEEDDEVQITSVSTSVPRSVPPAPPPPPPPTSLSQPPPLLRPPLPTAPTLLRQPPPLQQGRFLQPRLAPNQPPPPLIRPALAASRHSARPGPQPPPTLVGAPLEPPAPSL

B1: MIER2 (endogenous, mouse ESCs) (protein, UniProt Q3U3N0 1-541)
chain: MAEASSLERQSPRVASCLVHSLCPREPSLQTTAVVSMGSADHQFNLAELLTQNYNLQEGCAEAPQCPDKPEEELDKDFIDQSSDMPLDELLALYGYESSDPISEQESEGGDTAPALPDMTLDKEQIAKDLLSGEEEEETQSSADDLTPSVTSHEASDLFHNQSGSRFLAGDNGPGSSASSDTEEDALPANKCKKEIMVGPQFQADLNILHLNRHCDKIYENEDQLLWSPSVLPEREVEEFLYRAVKRRWQEMAGPQIPEGEVVKDSEQALYELVKCNFNVEEALRRLRFNVKVIRDGLCAWSEEECRNFEHGFRVHGKNFHLIQANKVRTRSVGECVEYYYLWKKSERYDYFAQQTRLGRRKFVSSGTTDTEQDLDGLDPDGHARLHSEAGVPVEPLNVDIEAGGLDQPGVGSDDLPSSEPGPRPFQQLDEPPAVPSLQQPTSLAASAELPPAAAAAPEPGTSPRLPVDLALPEELPLVSSPVALSEDTAEPMAPAQVALSVTEFGLIGIGDVNPFLTGHPACPTSTLHSEPLSQCNVMTC
B2: MIER3 (endogenous, mouse ESCs) (protein, UniProt Q3UHF3 1-551)
chain: MAEASFGSSSPVGSLSSEDHDFDPTAEMLVHDYDDERTLEEEELMDDGKNFSSEIEDLEKEGNMPLEDLLAFYGYESTIPAVANSSANSSPSELADELPDMTLDKEEIAKDLLSGDDEETQSSADDLTPSVTSHETSEFFPRPLRSNTTCDGDKESEIEDVETDSGNSPEDLRREIMIGLEYQAEIPPYLGEYNGDDEKAYENEDQLLWHPGVLLESKVKEYLVETSLRTGNEKVLDRISSGTHTRDNEQALYELLKCNHNIKEAIERYCCNGKASQEGMTAWTEEECRSFEHALMLHGKDFHLIQKDKVRSRTVAECVAFYYMWKKSERYDYFAQQTKFGKKRYNHHPGVTDYMDRLVDETESLGGTVSSSALTCNRPEPVPDQPLNILSSFTASDLTALTNSVATVCNPTAVNCLDDSFPPLANTPRGHVNHVPVVTEELLTLPSNGESDCFNLFETGFYHSELNPMCSEESERPAKRLKMGIAVPESFMNEVSVNNLGVDFENHTHHITSAKMAVSVADFGSLSANETNGFINAHSLHQHQHAALHSE
B3: O-GlcNAc transferase (OGT) (endogenous, mouse ESCs) (protein, UniProt Q8CGY8 1-1046)
chain: MASSVGNVADSTEPTKRMLSFQGLAELAHREYQAGDFEAAERHCMQLWRQEPDNTGVLLLLSSIHFQCRRLDRSAHFSTLAIKQNPLLAEAYSNLGNVYKERGQLQEAIEHYRHALRLKPDFIDGYINLAAALVAAGDMEGAVQAYVSALQYNPDLYCVRSDLGNLLKALGRLEEAKACYLKAIETQPNFAVAWSNLGCVFNAQGEIWLAIHHFEKAVTLDPNFLDAYINLGNVLKEARIFDRAVAAYLRALSLSPNHAVVHGNLACVYYEQGLIDLAIDTYRRAIELQPHFPDAYCNLANALKEKGSVAEAEDCYNTALRLCPTHADSLNNLANIKREQGNIEEAVRLYRKALEVFPEFAAAHSNLASVLQQQGKLQEALMHYKEAIRISPTFADAYSNMGNTLKEMQDVQGALQCYTRAIQINPAFADAHSNLASIHKDSGNIPEAIASYRTALKLKPDFPDAYCNLAHCLQIVCDWTDYDERMKKLVSIVAEQLEKNRLPSVHPHHSMLYPLSHGFRKAIAERHGNLCLDKINVLHKPPYEHPKDLKLSDGRLRVGYVSSDFGNHPTSHLMQSIPGMHNPDKFEVFCYALSPDDGTNFRVKVMAEANHFIDLSQIPCNGKAADRIHQDGIHILVNMNGYTKGARNELFALRPAPIQAMWLGYPGTSGALFMDYIITDQETSPAEVAEQYSEKLAYMPHTFFIGDHANMFPHLKKKAVIDFKSNGHIYDNRIVLNGIDLKAFLDSLPDVKIVKMKCPDGGDNPDSSNTALNMPVIPMNTIAEAVIEMINRGQIQITINGFSISNGLATTQINNKAATGEEVPRTIIVTTRSQYGLPEDAIVYCNFNQLYKIDPSTLQMWANILKRVPNSVLWLLRFPAVGEPNIQQYAQNMGLPQNRIIFSPVAPKEEHVRRGQLADVCLDTPLCNGHTTGMDVLWAGTPMVTMPGETLASRVAASQLTCLGCLELIAKSRQEYEDIAVKLGTDLEYLKKIRGKVWKQRISSPLFNTKQYTMELERLYLQMWEHYAAGNKPDHMIKPVEVTESA
B4: EMSY (endogenous, mouse ESCs) (protein, UniProt Q8BMB0 1-1264)
chain: MPVVWPTLLDLSRDECKRILRKLELEAYAGVISALRAQGDLTKEKKDLLGELSKVLSISTERHRAEVRRAVNDERLTTIAHKMNLSLYLGERPSYSMSGPNSSSEWSIEGRRLVPLMPRLVPQTAFTVTANAVANAAVQHNASLPVPAETASKDGVSCSDEDEKPRKRRRTNSSSSSPVVLKEVPKAVVPVSKTITVPVSGSPKMSNIMQSIANSLPPHMSPVKITFTKPSTQTTNTTTQKVIIVTTSPSSTFVPNILSKSHNYAAVTKLVPTSVIASTTQKPPVVITASQASLVTSSSNGNSSSTSSPISSTVAVTTVVSSTPSVVMSTVAQGVSTSAIKVASTRLPSPKSLVSGPTQILAQFPKQHQQSPKQQLQQVQQQTQQPVAQPSSVSQQQQPQQSALPPGIKPTIQIKQESGVKIITQQVQPSKILPKPVTATLPTSSNSPIMVVSSNGAIMTTKLVTTPTGTQATYTRPTVSPSLGRVATTPGAATYVKTTSGSIITVVPKSLATLGGKIISSNIVSGTTTKITTIPMTSKPNVIVVQKTTGKGTTIQGLPGKNVVTTLLNAGGEKTLQTVPAGAKPAIITATRPITKMIVTQPKGIGSAVQPAAKIIPTKIVYGQQGKTQVLIKPKPVTFQATVVSEQTRQLVTETLQQASRVADASNSSAQEGKEEPQGYTDSSSSSTESSQSSQDSQPVVHVIASRRQDWSEHEIAMETSPTIIYQDVSSESQSATSTIKALLELQQTTVKEKLESKPRQPTIDLSQMAVPIQMTQEKRHSPESPSIAVVESELVAEYITTVSHRSQPQQPSQPQRTLLQHVAQSQTATQTSVVVKSIPASSPGAITHIMQQALSSHTAFTKHSEELGTEEGEVEEMDTLDPQTGLFYRSALTQSQSTKQQKLSQPQLEQTQLQVKTLQCFQTKQKQTIHLQADQLQHKLTQMPQLSIRHQKLNPLQQEQAQPKPDAQHTQHTVVAKDRQLPTLMAQPPQTVVQVLAVKTTQQLPKLQQAPNQPKIYVQPQTPQSQMALPSSEKQPASQVEQPIITQGSSVTKITFEGRQPPTVTKITGGSSVPKLTSPVTSISPIQASEKTAVSDILQMSLMEAQIDTNVEHMVVDPPKKALATNVLTGEAGALPSTHVVVAGMTKCRESCSSPSAVGPPLTTRKIEAAGVPTTGQFMRIQNVGQKKAEESPTEIIIQAIPQYAIPCHSSSNVVVEPSGLLELNNFTSQQLDDDETAMEQDIDSSTEDGTEPSPSQSAVERS
B5: ARID4B (endogenous, mouse ESCs) (protein, UniProt A2CG63 1-1314)
chain: MKALDEPPYLTVGTDVSAKYRGAFCEAKIKTAKRLVKVKVTFRHDSSTVEVQDDHIKGPLKVGAIVEVKNLDGAYQEAVINKLTDASWYTVVFDDGDEKTLRRSSLCLKGERHFAESETLDQLPLTNPEHFGTPVIGKKTNRGRRSNHIPEEESSSSSSDDDEEERKQTDELLGKVVCVDYVSLEKKKAMWFPALVVCPDCSDEIAVKKDNILVRSFKDGKFTSVPRKDVHEITSDTVPKPDAVLKQAFDQALEFHKSRAIPANWKTELKEDSSSSEAEEEEEEEDDEKEKEDNSSEEEEEIEPFPEERENFLQQLYKFMEDRGTPINKRPVLGYRNLNLFKLFRLVHKLGGFDNIESGAVWKQVYQDLGIPVLNSAAGYNVKCAYKKYLYGFEEYCRSANIDFQMALPEKVLNKPCKDCENKEVKVKEESETEIKEVNVEDSKNVMPKEETPAEDESERKENIKPSLGSKKSLLECIPAQSDEEKEAHITKLEENENLEDKDGGRARTEEAFSTEVDGEEEQARSGDETNKEEDEDDEEIEEEEEEDEEEDEDEDDDDNNEEEEFECYPPGMKVQVRYGRGKNQKMYEASIKDSDVEGGEALYLVHYCGWNVRYDEWIKADKIVRPADKNVPKIKHRKKIKNKLDKEKDRDEKYSPKNCKLRRLSKSPFQSNPSPEMVSKLDLADAKNSDTAHIKSIEITSILNGLQASESSAEDSEQEDERCTQDVDNIGKDESKVEHSTHSRNELISKEEQSSPSLLEENKVHTDLVIAKTVSKSPERLRKDMEAISEDTDFEEEDEITKKRKDVKKDTTDKALKPQTKRGKRRYCSADECLQTGSPGKKEDRTKSKEPLCTENSSNSSSDEDEEEKSKAKMTPTKKYNGLEEKRKSLRTTSFYSGFSEVAEKRIKLLNNSDERLQNNRAKDRKDVWSSIQGQWPKKTLKELFSDSDTEAAASPPHPAPDEGAVEESLQTVAEEESCSPIMELEKPLPASVDNKPIEEKPLEVSDRKTEFPSSGSNSVLNTPPTTPESPSSVTITEASQQQSSVTVSVPLPPNQEEVRSIKSETDSTIEVDSVVGELQDLQSEGNSSPAGFDASVSSSSSNQPEPDNPEKACTGQKRVKDTQGVGSSSKKQKRSHKATVVNNKKKGKGTNSSDSEELSAGESVTKTQTIKSVPTGMKTHNSKSPARVQSPGKGGRNGDKDPDLKEPSNRLPKVYKWSFQTSDLENMTSAERISILQEKLQEIRKHYLSLKSEVASIDRRRKRLKKKERESAATSSSSSSPSSSSITAAVMLTLAEPSMSSASQNGMSVECR

Experiments:
[1] = target: HDAC1–E63R (Flag), stably expressed in Hdac1/2 double knockout mouse ESCs (UniProt Q13547); test: affinity purification with mass spectrometry; Flag IP (anti-Flag on Protein G Dynabeads) of HDAC1-Flag WT, Y48E or E63R from extracts of Hdac1/2 DKO mouse ESCs 5 days after OHT; coIP buffer 250 mM NaCl, 20 mM Tris-HCl pH 7.5, 0.5% IGEPAL, 1 mM EDTA; 4°C overnight; LC-MS/MS; control DKO cells lacking a Flag epitope
[2] = target: HDAC1-Flag (wild type), stably expressed in Hdac1/2 double knockout mouse ESCs (UniProt Q13547); test: as above

Row | Molecule | binding [1] | binding [2]
1 | RERE (endogenous, mouse ESCs) (from UniProt Q80TZ9 1-1558) | binds | binds
2 | RCOR2 (endogenous, mouse ESCs) (from UniProt Q8C796 1-523) | binds weakly | binds
3 | B1 | binds | binds
4 | B2 | binds | binds
5 | B3 |  | binds
6 | B4 |  | binds
7 | B5 |  | binds
